From patent US20240083958A1 (VRIJE UNIVERSITEIT BRUSSEL, priority 2020, published 2024) come the findings set out here.

Square brackets hold non-standard residues; d marks the D form. Cha = N[C@@H](CC1CCCCC1)C(=O)O

The nature of one data set: general procedure: Fmoc solid-phase peptide synthesis; preloaded Fmoc-Leu-Wang resin (0.6-0.75 mmol/g) or Rink Amide resin (0.92 mmol/g); HBTU/DIPEA (manual, Activotec P11); DIC/Oxyma (Liberty Blue). Conditions: whole synthesis, TFA salt.
Ac-FNDARDIIQRMHLRQYELL-OH: the isolated yield stood at 21%. On to Ac-FNDCRDEIQRKHLRQYELL-OH, for which the isolated yield is given as 10%.

On to Ac-FNDCRDIIQRMHLRQAELL-OH, for which the isolated yield is 14%. In the case of Ac-FNDCRDIIQRMHLRQYALL-OH, the isolated yield is listed as 14%. Still for that read-out and setting: under Ac-FNDCRDIIQRMHLRQYEAL-OH stands 21%; under Ac-FNDCRDIIQRMHLRQYEFL-OH, 18%. Regarding Ac-FNDCRDIIQRMHLRQYEHL-OH, the isolated yield turned out to be 19%. As for Ac-FNDCRDIIQRMHLRQYELA-OH, the isolated yield is 17%. Same read-out and setting: under Ac-FNDCRDIIQRMHLRQYELL-OH stands 5%. For the substance Ac-FNDCRDIIQRMHLRQYEL[Cha]-OH, the isolated yield was 5%. On the same count and under the same terms, under Ac-FNDCRDIIQRMHLRQYEWL-OH stands 17%; under Ac-FNDCRDIIQRMHLRQYEYL-OH, 20%.

With Ac-FNDCRDIIQRMHLRQYE[Cha]L-OH, the isolated yield is 18%. As to Ac-FNDCRDIIQRMHLRQ[Cha]ELL-OH, the isolated yield worked out at 13%. Same read-out and setting: under Ac-FNDCRDS5IQRS5HLRQYELL-OH stands 6%; under Ac-FNDCRDc[EIQRK]HLRQYELL-OH, 10%. On the same count and under the same terms, next, Ac-FNDCRDc[PraIQRAzk]HLRQYELL-OH: 5%; Ac-FNDCRDc[R8IQRMHLS5]QYELL-OH: 1%. Still for that read-out and setting: under Ac-FNDCRDc[S5IQRS5]HLRQYELL-OH stands 7%; under Ac-FNECRDKIQRMHLRQYELL-OH, 6%; under Ac-FNS5CRDS5IQRMHLRQYELL-OH, 7%.

Turning to Ac-FNc[AzkCRDPra]IQRMHLRQYELL-OH, the isolated yield amounted to 10%. On the same count and under the same terms, under Ac-FNc[ECRDK]IQRMHLRQYELL-OH stands 3%; under Ac-FNc[PraCRDAzk]IQRMHLRQ1-NalELL-OH, 3.0%; under Ac-FNc[PraCRDAzk]IQRMHLRQ2-NalELL-OH, 1%. The same measure, in the same setting: under Ac-FNc[PraCRDAzk]IQRMHLRQWELL-OH stands 7%; under Ac-FNc[PraCRDAzk]IQRMHLRQYDLL-OH, 6%; under Ac-FNc[PraCRDAzk]IQRMHLRQYEIL-OH, 12%. Take Ac-FNc[PraCRDAzk]IQRMHLRQYELI-OH: the isolated yield was determined as 14%. Take Ac-FNc[PraCRDAzk]IQRMHLRQYELL-NH2: the isolated yield was 11%. As to Ac-FNc[PraCRDAzk]IQRMHLRQYELL-OH, the isolated yield is 15%. Same read-out and setting: under Ac-FNc[PraCRDAzk]IQRMHLRQYHGluLL-OH stands 8%; under Ac-FNc[PraCRDAzk]IQRMHLRQYQLL-OH, 9%; under Ac-FNc[PraCRNAzk]IQRMHLRQYELL-OH, 11%. The same measure, in the same setting: under Ac-FNc[S5CRDS5]IQRMHLRQYELL-OH stands 5%.

In the case of Ac-IIQRMHLRQYE[Cha]L-OH, the isolated yield came to 33%. The same measure, in the same setting: under Ac-KFNc[PraCRDAzk]IQRMHLRQYEChaL-OH stands 3%; under Ac-KFNc[PraCRDAzk]IQRMHLRQYEIL-OH, 6%; under Ac-KFNc[PraCRDAzk]IQRMHLRQYELI-OH, 6%.

On to Ac-KFNc[PraCRDAzk]MHLRQYDLL-OH, for which the isolated yield was found to be 4%. On the same count and under the same terms, next, Ac-KFc[PraCRDAzk]IQRMHLRQYhGluLL-OH: 6%; Ac-KKFNc[PraCRDAzk]IQRMHLRQYEChaL-OH: 7%; Ac-KKKFNc[PraCRDAzk]IQRMHLRQ2-NalELL-OH: 1%.

Take Ac-KKKFNc[PraCRDAzk]IQRMHLRQWELL-OH: the isolated yield amounted to 2%. On the same count and under the same terms, next, Ac-KKKFNc[PraCRDAzk]IQRMHLRQYDLL-OH: 2%; Ac-KKKFNc[PraCRDAzk]IQRMHLRQYEChaL-OH: 8%; Ac-KKKFNc[PraCRDAzk]IQRMHLRQYEFL-OH: 3%. Still for that read-out and setting: under Ac-KKKFNc[PraCRDAzk]IQRMHLRQYELL-OH stands 11%; under Ac-KKKFNc[PraCRDAzk]IQRMHLRQYhGluLL-OH, 2%.

Take Ac-KKKRDIIQRc[AzkHLRPra]YEChaL-OH: the isolated yield was found to be 8%. Consider Ac-NARRIFNDARDIIQRMHLRQYELL-OH, for which the isolated yield came out at 13%. As for Ac-NARRIFNDARDIIQRMHLRQYEWL-OH, the isolated yield amounted to 12%. On the same count and under the same terms, under Ac-QRMHLRQYELL-OH stands 14%; under Ac-QRMHLRQYE[Cha]L-OH, 8%. The same measure, in the same setting: next, Ac-RDIIQRAzkHLRPraYELL-OH: 24%. Still for that read-out and setting: next, Ac-RDIIQRMHLRQYELL-OH: 17%; Ac-RDIIQRMHLRQYE[Cha]L-OH: 24%. With Ac-RDIIQRc[AzkHLRPra]YEChaL-OH, the isolated yield amounted to 16%. With Ac-RDIIQRc[AzkHLRPra]YELL-OH, the isolated yield was determined as 9%.

Ac-RFNc[PraCRDAzk]IQRMHLRQYELL-OH: the isolated yield was determined as 7%.

Regarding Ac-RRIFNDCRDIIQRMHLRQYELL-OH, the isolated yield amounted to 12%. As to H-FNDCRDIIQRMHLRQYELL-OH, the isolated yield turned out to be 5%. Turning to “H-FNDCRDc[EIQRK]HLRQYELL-OH (FNDCRDEIQRKHLRQYELL; cyclised or stapled)”, the isolated yield amounted to 17%.

As to H-QRMHLRQYELL-OH, the isolated yield came out at 4%.

With H-RDIIQRMHLRQYELL-OH, the isolated yield was 16%.

On to H-RDIIQRc[AzkHLRPra]YELL-OH, for which the isolated yield worked out at 4%.

The same data set, now with this note: whole synthesis, TFA salt, cyclic.
Consider Ac-KKKFN-[PraCRDAzk]IQRMHLRQYELI-OH, for which the isolated yield is 3%.
